Measured values from PMC5175582.

Biological target: T1, Biotin-labelled MMRN1 (human) (UniProt Q13201)
T1 sequence (chain, biotin (sites not stated)): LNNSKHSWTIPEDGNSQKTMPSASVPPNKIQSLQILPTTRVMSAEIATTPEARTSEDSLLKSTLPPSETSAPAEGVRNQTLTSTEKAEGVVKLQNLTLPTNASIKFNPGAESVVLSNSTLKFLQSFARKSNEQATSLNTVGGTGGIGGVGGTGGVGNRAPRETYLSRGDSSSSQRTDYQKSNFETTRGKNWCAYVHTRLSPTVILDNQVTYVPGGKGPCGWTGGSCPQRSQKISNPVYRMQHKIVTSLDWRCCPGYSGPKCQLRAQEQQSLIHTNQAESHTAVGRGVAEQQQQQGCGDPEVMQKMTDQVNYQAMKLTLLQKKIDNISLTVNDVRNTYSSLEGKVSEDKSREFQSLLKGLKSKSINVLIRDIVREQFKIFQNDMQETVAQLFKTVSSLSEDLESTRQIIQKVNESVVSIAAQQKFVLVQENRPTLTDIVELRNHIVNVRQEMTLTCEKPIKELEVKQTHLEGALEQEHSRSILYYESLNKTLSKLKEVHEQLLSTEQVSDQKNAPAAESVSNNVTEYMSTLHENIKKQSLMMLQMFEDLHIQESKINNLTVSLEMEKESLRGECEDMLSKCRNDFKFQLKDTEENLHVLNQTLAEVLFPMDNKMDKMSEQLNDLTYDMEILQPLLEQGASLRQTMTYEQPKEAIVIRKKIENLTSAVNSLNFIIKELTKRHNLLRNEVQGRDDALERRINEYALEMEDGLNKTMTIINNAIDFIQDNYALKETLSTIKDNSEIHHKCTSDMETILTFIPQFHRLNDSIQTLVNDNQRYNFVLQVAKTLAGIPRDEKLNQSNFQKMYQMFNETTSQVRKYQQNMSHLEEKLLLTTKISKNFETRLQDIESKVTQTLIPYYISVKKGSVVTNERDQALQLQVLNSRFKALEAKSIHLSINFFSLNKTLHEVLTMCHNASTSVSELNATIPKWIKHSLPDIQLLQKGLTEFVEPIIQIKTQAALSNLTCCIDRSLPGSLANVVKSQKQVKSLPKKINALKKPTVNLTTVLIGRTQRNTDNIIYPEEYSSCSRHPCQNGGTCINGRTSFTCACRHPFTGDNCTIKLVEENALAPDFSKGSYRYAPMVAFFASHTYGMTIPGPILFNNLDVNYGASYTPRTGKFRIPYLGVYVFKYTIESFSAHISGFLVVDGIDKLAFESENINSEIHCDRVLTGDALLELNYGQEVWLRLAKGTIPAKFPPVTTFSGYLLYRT
Assay: SPR; BIAcoreX; biotin-labelled MMRN1 immobilised on streptavidin-coated sensor chips (500–1000 RU); VWF A domains perfused in HEPES-Tyrode running buffer with 0.005 % P-20; two-state conformational model for A1A2A3 and A1, 1:1 Langmuir model for A3; apparent affinity; both purified

Monomeric VWF A2 domain (domain or fragment)
binding: no binding (tested: 250 nM)

These are yes or no findings as the source states them, for the method shown.
